These are yes or no findings as the source states them, for the method shown. In cells and extracts the contact can be indirect. Some results given as binding are weak or reduced against the parent protein; the word gives no strength. Tags and fused reporters may be left off the sequences shown.
Target: T1, FLAG/B6/TRAF2 (TRAF2 tagged with FLAG, expressed in HeLa-Bujard cells) (human), Q12933
T1 chain: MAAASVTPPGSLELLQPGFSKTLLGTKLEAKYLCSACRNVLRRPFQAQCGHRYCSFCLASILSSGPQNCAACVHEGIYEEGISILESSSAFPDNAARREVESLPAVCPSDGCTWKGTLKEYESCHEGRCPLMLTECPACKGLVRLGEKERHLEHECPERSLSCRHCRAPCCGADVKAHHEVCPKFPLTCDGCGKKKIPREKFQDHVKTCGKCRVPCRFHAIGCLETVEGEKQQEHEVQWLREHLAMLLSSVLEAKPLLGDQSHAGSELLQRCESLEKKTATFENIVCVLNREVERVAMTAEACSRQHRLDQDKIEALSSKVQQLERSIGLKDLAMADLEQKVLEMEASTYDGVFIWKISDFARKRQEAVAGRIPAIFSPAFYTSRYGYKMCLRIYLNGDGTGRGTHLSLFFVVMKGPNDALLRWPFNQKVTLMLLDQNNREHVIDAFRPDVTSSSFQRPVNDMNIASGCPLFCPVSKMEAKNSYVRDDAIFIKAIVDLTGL
Assay: co-immunoprecipitation from co-transfected HeLa-Bujard cells, SDS-PAGE, autoradiography
Conditions: remark: other sources report otherwise

binding: binds
B1: full-length NIK (NF-kB inducing kinase), Q99558 1-947 (enzyme)
chain: MAVMEMACPGAPGSAVGQQKELPKPKEKTPPLGKKQSSVYKLEAVEKSPVFCGKWEILNDVITKGTAKEGSEAGPAAISIIAQAECENSQEFSPTFSERIFIAGSKQYSQSESLDQIPNNVAHATEGKMARVCWKGKRRSKARKKRKKKSSKSLAHAGVALAKPLPRTPEQESCTIPVQEDESPLGAPYVRNTPQFTKPLKEPGLGQLCFKQLGEGLRPALPRSELHKLISPLQCLNHVWKLHHPQDGGPLPLPTHPFPYSRLPHPFPFHPLQPWKPHPLESFLGKLACVDSQKPLPDPHLSKLACVDSPKPLPGPHLEPSCLSRGAHEKFSVEEYLVHALQGSVSSSQAHSLTSLAKTWAARGSRSREPSPKTEDNEGVLLTEKLKPVDYEYREEVHWATHQLRLGRGSFGEVHRMEDKQTGFQCAVKKVRLEVFRAEELMACAGLTSPRIVPLYGAVREGPWVNIFMELLEGGSLGQLVKEQGCLPEDRALYYLGQALEGLEYLHSRRILHGDVKADNVLLSSDGSHAALCDFGHAVCLQPDGLGKSLLTGDYIPGTETHMAPEVVLGRSCDAKVDVWSSCCMMLHMLNGCHPWTQFFRGPLCLKIASEPPPVREIPPSCAPLTAQAIQEGLRKEPIHRVSAAELGGKVNRALQQVGGLKSPWRGEYKEPRHPPPNQANYHQTLHAQPRELSPRAPGPRPAEETTGRAPKLQPPLPPEPPEPNKSPPLTLSKEESGMWEPLPLSSLEPAPARNPSSPERKATVPEQELQQLEIELFLNSLSQPFSLEEQEQILSCLSIDSLSLSDDSEKNPSKASQSSRDTLSSGVHSWSSQAEARSSSWNMVLARGRPTDTPSYFNGVKVQIQSLNGEHLHIREFHRVKVGDIATGISSQIPAAAFSLVTKDGQPVRYDMEVPDSGIDLQCTLAPDGSFAWSWRVKHGQLENRP

From patent publication US7485456
